Primary screen of a compound library

Chains of the proteins cited; added tags and fusions are not shown.
UniProt E9BF75, entry or part of it: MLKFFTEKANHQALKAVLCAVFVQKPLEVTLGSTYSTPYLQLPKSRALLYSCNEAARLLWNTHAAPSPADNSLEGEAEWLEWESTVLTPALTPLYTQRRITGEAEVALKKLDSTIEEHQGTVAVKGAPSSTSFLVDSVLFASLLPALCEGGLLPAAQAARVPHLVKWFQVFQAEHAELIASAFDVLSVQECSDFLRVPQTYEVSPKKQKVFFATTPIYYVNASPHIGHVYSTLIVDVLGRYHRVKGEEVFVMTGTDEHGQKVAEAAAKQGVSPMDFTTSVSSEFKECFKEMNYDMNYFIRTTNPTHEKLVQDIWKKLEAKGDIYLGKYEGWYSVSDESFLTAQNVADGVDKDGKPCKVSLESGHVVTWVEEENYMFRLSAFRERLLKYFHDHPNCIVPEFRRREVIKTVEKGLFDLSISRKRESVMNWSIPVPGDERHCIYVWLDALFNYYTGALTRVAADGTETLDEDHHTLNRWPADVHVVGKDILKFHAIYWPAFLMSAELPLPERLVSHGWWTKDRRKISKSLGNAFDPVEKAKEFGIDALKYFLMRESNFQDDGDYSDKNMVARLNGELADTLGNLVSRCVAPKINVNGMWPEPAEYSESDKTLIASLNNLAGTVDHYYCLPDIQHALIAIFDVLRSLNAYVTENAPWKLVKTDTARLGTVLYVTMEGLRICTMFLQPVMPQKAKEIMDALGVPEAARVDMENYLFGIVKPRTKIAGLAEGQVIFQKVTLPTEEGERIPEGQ

The values are deposited in ChEMBL (CHEMBL3988442, “University of Dundee, Small-Polar-MMV Screening Library” (2021)).

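Primary screen of methionyl-tRNA synthetase; the read-out is not stated. Target: Methionyl-tRNA synthetase (putative), Leishmania donovani (UniProt E9BF75). The test concentration is not given. Values are per cent inhibition. About 68,000 compounds were tested under these conditions; 0.035% (about 24) showed 50% or more at least once.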

All values are in %. How 0% and 100% were set is not recorded. Most values in the screen are low, and negative values occur. The compounds are a random part of those screened.

Result for CN(Cc1nccn1C)S(=O)(=O)c1cccc(C#N)c1 was 6.028%. With Cc1ccc(C(=O)N2CCCCC2c2[nH]ncc2S(C)(=O)=O)cn1 (stereo unspecified) the screen gave 12%. CC(=O)NCC(=O)N1CCOC2(CCCN(c3ccc(C)nn3)C2)C1 (stereo unspecified) read 11.86%. CCN(Cc1nc2c(cnn2C)c(=O)[nH]1)c1ccccc1 gave 23.21%. Result for O=C(CCc1cscn1)N1CCCC(n2ccnc2)C1 (stereo unspecified) was 16.67%.

For Cc1nc(CNC(=O)NC2CC(C)(C)OC2(C)C)sc1C (stereo unspecified) the result was 9.943%. Result for CC(NC(=O)NCc1cc(Br)cs1)c1ccccn1 (stereo unspecified) was 25.68%. Result for COCc1noc(Cc2c(C)nn(C)c2C)n1 was 11.26%. With Cc1nn(CCO)c(C)c1CNC1CCc2c(F)cccc21 (stereo unspecified) the screen gave 12.24%. Result for CCn1nc(C)c(CCNC(=O)C2CCCN(C(=O)N(C)C)C2)c1C (stereo unspecified) was 14.07%.

Result for O=C(CCCNCc1ccccc1)N1CCCn2cncc2C1 was 12.28%. CC(=O)N1[C@H](Cn2cncn2)C[C@@H]2CN(Cc3cccnc3)CC[C@@H]21 read 6.84%. O=C(NCCC1CCCCO1)c1cc(COc2ccccc2F)[nH]n1 (stereo unspecified) gave 11.6%. For O=C(NCCO)C1(CC2CC(c3ccc(F)cc3)=NO2)CCOCC1 (stereo unspecified) the result was 2.201%. Cn1cnnc1C1CCN(C(=O)CCCOCc2ccccc2)CC1 gave 0.7752%.

CCn1ccnc1CN1CCN(CC(=O)NC2CCOCC2)CC1 gave 7.368%. CCCc1cncnc1N1CCC2(CCC(=O)N(CCCO)C2)CC1 read 16.09%. With O=C1NC2(CCN(Cc3ccsc3)CC2)CC1c1ccncc1 (stereo unspecified) the screen gave 6.536%. Result for COC(=O)N1C[C@H]2CC[C@@H]1CN(Cc1ccncc1)C2 was 14.63%. With Cc1ccccc1N(CC(=O)NCCc1nnc2n1CCC2)S(C)(=O)=O the screen gave 3.359%.

COc1ccc(C(=O)N2CC(=O)N(Cc3cccs3)CC(O)C2)cc1 (stereo unspecified) read 16.71%. CCN(CC)c1ncccc1CNCc1ccc(Cl)s1 read 19.68%. With CC(C)CCn1ccc(NC(=O)N2CCCC2CN2CCOCC2)n1 (stereo unspecified) the screen gave 2.842%. CN1CC(c2cc(O)nc(NCc3ccc(Cl)cc3)n2)CC1=O (stereo unspecified) read 18.75%. CC(C)(C)OC(=O)Cn1nc(C2CC2)cc(C(F)(F)F)c1=O read 13.04%.

With COc1cc(CNCc2ccco2)ccc1OCCO the screen gave 8.824%. Cc1ncsc1C(=O)NCc1cccs1 gave 8.571%. CN1CCCN(C(=O)c2nc3sccn3c2-c2ncc[nH]2)CC1 gave 19.63%. With O=C(CCn1ccnc1)N1CCCC(n2cncn2)C1 (stereo unspecified) the screen gave 3.794%. CCOC(=O)N1CCN(C(=O)C2CC(=O)N(c3ccccc3Br)C2)CC1 (stereo unspecified) read 16.43%.

CN(Cc1cnc(N)nc1)C(=O)c1coc(COc2cccc(F)c2)n1 gave 3.75%. With CNc1ncccc1CN1CCN2CCN(C)CC2C1 (stereo unspecified) the screen gave 11.64%. Cc1cc(S(=O)(=O)N2CCOCC2C#N)ccc1F (stereo unspecified) gave 7.143%. COCC(=O)N1CCN(C(=O)C2(c3ccc(C)c(OC)c3)CC2)CC1 gave 6.948%. CC(=O)N1CCC(c2nn(C)c(=O)n2-c2ccccc2)CC1 read 5.072%.

Result for Cc1c(Br)cccc1C(=O)Nc1cc(C(N)=O)n(C)c1 was 3.631%. Result for NC(=O)C1CCCN1C(=O)c1cc(C2CC2)nc2ccc(F)cc12 (stereo unspecified) was 6.266%. Cc1nn(C)c(C)c1C1CCCN1Cc1cccc(C(N)=O)c1 (stereo unspecified) gave 2.347%. CNS(=O)(=O)c1cc(C(=O)N2CCCCCC2CC(C)C)co1 (stereo unspecified) gave 6.964%. With Cc1csc(N2CCCN(C(=O)CCNc3ncccn3)CC2)n1 the screen gave 19.94%.

With CCNc1ncc(CN(CCN(C)C)Cc2ccc(C)s2)cn1 the screen gave -1.282%. CC(C)N(CCCNC(=O)C1CC(=O)N(C)C1)S(C)(=O)=O (stereo unspecified) gave 2.09%. Result for c1ccc(Cn2ccnc2CN2CCCC2c2noc(C3CC3)n2)cc1 (stereo unspecified) was 8.392%. For CNC(=O)CN1CCC(NC(=O)CC(C)CCc2ccccc2)CC1 (stereo unspecified) the result was -16.75%.

4 of the entries, repeated:

With CCN(CC)c1ncccc1CNCc1ccc(Cl)s1 the screen gave 19.68%.
With Cc1c(Br)cccc1C(=O)Nc1cc(C(N)=O)n(C)c1 the screen gave 3.631%.
With CC(=O)N1CCC(c2nn(C)c(=O)n2-c2ccccc2)CC1 the screen gave 5.072%.
With CNc1ncccc1CN1CCN2CCN(C)CC2C1 (stereo unspecified) the screen gave 11.64%.